## Percent effect of library compounds

Source: ChEMBL document CHEMBL3988442, “University of Dundee, Small-Polar-MMV Screening Library” (2021).

Each number is a percent effect as filed. How 0% and 100% were set is not recorded. Most values in the screen are low, and negative values occur. Compounds were drawn at random from those tested, without regard to their results. Two or more numbers in one place are separate tests of the same structure; such repeats can differ widely.

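Cell assay of Leishmania donovani living inside macrophages; the read-out is not stated. Compounds at 30 µM. Direction is inferred from retests: higher values go with stronger inhibition. About 69,000 compounds were tested under these conditions; 1.5% (about 1,000) showed 50% or more at least once.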

compound,percent effect
O=C(Nc1ccc(-c2ccco2)cc1)C1CCCN(Cc2ccon2)C1 (configuration not stated),-2.21
CCn1cc(NC(=O)NCC(O)COc2cccc(F)c2)cn1 (configuration not stated),-9.659
CS(=O)(=O)N1CCc2sc(C(=O)NCc3ccncc3)cc21,13.92
Cc1nc(CN2CCC(c3nc4cc(Cl)ccc4o3)CC2)oc1C,4.954
CNC(=O)CN(C(=O)c1cc(C(C)C)no1)c1cccc(F)c1,-13.24
[H][C@@]1([C@H](C)C(=O)NCCOC)CCc2c(C)cc(OCC(=O)O)c(C)c2C1,17.58
Cc1nc(C(=O)N2CCCC2c2c(C)nn(C)c2C)ccc1C#N (configuration not stated),17.34
Cc1ccc(N2CCC3(CCN(C(=O)c4ccsc4)CC3)C2)nn1,25.95
Cc1cc(=O)[nH]c(CCNC(=O)C(c2ccc(F)cc2)N(C)C)n1 (configuration not stated),0.7104
CC(C)CNC(=O)c1ccc(NC(=O)NC2CC2)cc1Cl,11.15
Cc1n[nH]c2c1C(c1ccc(Br)cc1)SCC(=O)N2 (configuration not stated),24.3
[H][C@@]12CCCO[C@]1([H])[C@H](NS(C)(=O)=O)CN2C(=O)c1cnccn1,-0.6725
CSC1(CNC(=O)c2cccc(-n3cccn3)c2)CCOCC1,47.1
Cc1cnn(CC2CN(Cc3nc4ccccc4s3)CCO2)c1 (configuration not stated),22.07
CCc1ccc(C(=O)N2CCC3(CCC(=O)N(CCN(C)C)C3)CC2)[nH]1,-1.749
O=C(O)C(F)(F)F.O=S(=O)(C1CC1)N1CCC2(CN(c3ccccn3)C2)C1,-2.997
CN(Cc1cc[nH]n1)C(=O)c1cn(Cc2ccccc2Cl)nn1,17.22
O=C(NCc1ccc2c(c1)OCO2)c1ccc(N2CCCCCC2)nc1,20.19 & 17.84
Cc1ccccc1C1CCN(CCn2cc(-c3cccc(O)c3)nn2)C1 (configuration not stated),-6.229
COc1ccnc(N2CCN(C(=O)CCc3cnn(C)c3)CC2)n1,9.723
CC1=Nc2c(c(=O)[nH]n2C(C)C)C(c2ccc3c(c2)n(C)c(=O)n3C)S1 (configuration not stated),-11.26
CC(C)(C)c1nc(CN(Cc2cccs2)C2CCS(=O)(=O)C2)no1 (configuration not stated),13.03
CCS(=O)(=O)NCC(Cc1cccc(F)c1)N1CCNC1=O (configuration not stated),15.27 & 3.735
CC(CCN(C)C)NC(=O)N1CCSC(C)(C)C1 (configuration not stated),13.93
COc1ccc(CC2CCCN2CCCC#N)cc1 (configuration not stated),13.94
CCN(CC)C(=O)c1ccc(Cl)c(NC(=O)c2cc(C(C)C)on2)c1,13.22
COc1cc(S(=O)(=O)N2CCc3ccc(Cl)cc32)cc(C(=O)O)c1OC,5.184
CC(C)c1nnc2n1CCN(c1nc3ccccc3o1)C2,19.13
NS(=O)(=O)NCc1cc(-c2ccco2)n(CC(F)(F)F)n1,9.322 & 4.279
Cc1nc(CN2CCN(C(=O)CCc3cccc(Cl)c3)CC2)no1,12.91
CC(=O)Nc1cc(Br)cnc1OCC(F)(F)F,2.724
Cc1ccc(-c2nc(CC(=O)NCC3CCCN(C(C)C)C3)cs2)o1 (configuration not stated),-1.737
CC(C)C[C@H](N)COc1cccc(F)c1Oc1ccccc1,56.67
Cc1cc(C)nc(N2CCC(Cn3cc(C(N)=O)cn3)CC2)n1,11.5
COc1ccc(Cl)cc1NCc1nc2[nH]c(C)c(C)c(=O)n2n1,40.07
CCC1CN(CC(=O)NCCOC)CCO1 (configuration not stated),30.59
O=C(O)C(F)(F)F.[H][C@@]12CCN(c3ncccn3)C[C@]1(COc1nccc(C)n1)CCO2,15.22
Cc1cncc(C(=O)N2CCCC3(CCCN3S(C)(=O)=O)C2)c1 (configuration not stated),10.01
N#CC(NC(=O)CS(=O)(=O)C1CCCC1)c1ccc(F)cc1F (configuration not stated),18.32
[H][C@]12CN(C(=O)c3ccc(C#N)nc3)CC[C@@]1(O)CCN(C(=O)N(C)C)C2,13.35
O=C(NCCc1ccccn1)NC1CCN(c2ncccn2)CC1,10.26
COCCN1CCC(NC(=O)C2(c3cc(C)cc(C)c3)CC2)CC1,28.53
N#Cc1nc(COc2ccc3c(c2)OCO3)oc1N1CCCCCC1,19.47
CC(C)[C@@H]1CN(C(=O)NCc2ccco2)C[C@H]1N(C)C,7.983
COC1CCCN(C(=O)c2sc(CC(C)C)nc2C)C1 (configuration not stated),-13.1
COc1cccc([C@@H]2CN(C3CCCC3)C[C@H]2C(=O)O)c1,27.06
CCNC(=O)c1ccc(NC2CCOC3(CCCCC3)C2)nn1 (configuration not stated),8.627
COCc1cc(NCCc2ccc(OC)cc2)n2nccc2n1,3.06

4 of the entries, repeated:

* CCC1CN(CC(=O)NCCOC)CCO1 (configuration not stated) | 30.59%
* COc1ccc(CC2CCCN2CCCC#N)cc1 (configuration not stated) | 13.94%
* CCN(CC)C(=O)c1ccc(Cl)c(NC(=O)c2cc(C(C)C)on2)c1 | 13.22%
* CC(C)[C@@H]1CN(C(=O)NCc2ccco2)C[C@H]1N(C)C | 7.983%